This passage reports AC50 results from PubChem BioAssay AID1487 (National Center for Advancing Translational Sciences (NCATS), 2009).

The test can be described thus: qHTS Assay for Modulators of Lamin A Splicing. Conditions: HeLa LMNA splicing GFP/RFP minigene ratio, 48 h. The procedure, abridged: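 S3 HeLa cells stably expressing lamin A-EGFP splicing minigene plus DsRed2, 600 cells/well, 48 h compound exposure at 37C. Laser-scanning cytometry; analysed as GFP (500-530 nm)/RFP (575-640 nm) total intensity ratio; 0.5% DMSO vehicle.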

Setting [1] is: measured here: GFP splicing reporter channel.
[2] abbreviates: measured here: RFP viability control channel.

Molecules are shown by their SMILES. The list shows a part of the results. Further columns of the screen follow, without active or inactive calls. The list favours compounds with an active or inconclusive main result. Words in brackets tell the shape of the fitted curve; partial curves, single points and poor fits give uncertain potencies.

For `COc1ccc(CNC(=O)Cn2c(=O)nc(-c3ccccc3F)c3cc(Cl)ccc32)cc1OC`, the AC50 under setting [1] is 35.5 µM [falling, single point]. Take `c1cn(-c2cc(-c3ccc4c(c3)OCO4)ncn2)cn1`: the AC50 under setting [1] is 35.5 µM [falling, single point] and the AC50 under setting [2] is 35.5 µM [falling, single point]. Take `COC(=O)c1ccc(S(=O)(=O)N2C3CCC2CC(NC(=O)C2CC2)C3)cc1` (stereo not given): the AC50 under setting [1] was 2.51 µM [falling, partial curve, poor fit] and the AC50 under setting [2] was 3.98 µM [falling, partial curve]. Regarding `COc1cc2c(cc1NC(=S)Nc1cccc(C(F)(F)F)c1)oc1ccccc12`, the AC50 under setting [2] was 11.2 µM [rising, partial curve]. Consider `Cc1cccc(C(=O)N2CCc3cc(CNC(=O)c4ccc(Br)o4)ccc32)c1`, for which the AC50 is 35.5 µM [falling, partial curve, poor fit] under setting [1] and 0.0562 µM [falling, full curve, poor fit] under setting [2]. On to `O=C(Nc1cccc(F)c1)c1ccc(S(=O)(=O)NCC2CCCO2)cc1` (stereo not given), for which the AC50 under setting [2] was 12.6 µM [rising, partial curve]. Regarding `CCC(CC)C(=O)Nc1cccc(C(=O)Nc2ccc(S(=O)(=O)Nc3ccc(C)cc3)cc2)c1`, the AC50 is 15.8 µM [falling, single point] under setting [1] and 35.5 µM [falling, single point] under setting [2]. As to `O=C(CSc1ncn[nH]1)NN(c1ccccc1)c1ccccc1`, the AC50 under setting [2] was 31.6 µM [falling, single point]. The same measure, in the same setting: next, `COc1ccc(OC)c(-n2nnnc2SCC(=O)Nc2ccc(C(=O)N3CCCCC3)cc2)c1`: 35.5 µM [rising, single point].

Consider `Cc1cc(/C=N/Nc2nc(N3CCOCC3)nc(N3CCOCC3)n2)c(C)n1-c1ccccc1`, for which the AC50 under setting [1] was 0.0562 µM [rising, full curve, poor fit]. As for `CC(C)(C)OC(=O)N1CCC(c2c(C(=O)NCc3ccccc3)cnn2-c2ccccc2)CC1`, the AC50 under setting [2] was 0.251 µM [rising, full curve, poor fit].

As to `CC(C)(C)NC(=O)NC(=O)COC(=O)Cc1ccc(Cl)cc1Cl`, the AC50 under setting [1] is 39.8 µM [falling, partial curve, poor fit]. `Cn1c(CCN2CCOCC2)nc2cc(NC(=O)c3cccs3)ccc21`: the AC50 under setting [2] was 15.8 µM [rising, partial curve]. Turning to `COc1ccc(/C=C2\SC(=O)N(CCNC(=O)Cn3cnnn3)C2=O)cc1`, the AC50 under setting [1] was 5.01 µM [falling, single point] and the AC50 under setting [2] is 4.47 µM [falling, single point]. In the case of `Cc1ccc2nc(SC(C(=O)Nc3ccc(F)cc3)c3ccccc3)[nH]c2c1` (stereo not given), under setting [2], the AC50 was 35.5 µM [rising, single point].

In general, AC50 refers to the concentration at which the activity in the assay is half-maximal.
